Data on one compound can be found in PMC5778159 (Naunyn-Schmiedeberg's Archives of Pharmacology, 2017).

A short description of data set [1]: Pharmacokinetic study in rats after single i.v. or i.p. tianeptine, non-compartmental analysis. As to conditions: rat. Here is the method:
Male Wistar rats, 13–15 weeks of age and weighing between 200 and 220 g, were used in all the experiments. They were kept under conditions of constant temperature (21–25 °C) and a relative humidity of approximately 40–65% with a standard light/dark cycle. Animals were housed in the stainless steel cages with suspended wire-mesh floors and had free access to water and the commercial rodent chow.
Six rats were used in PK experiments, and 3 days prior to the experiment, rat jugular vein was cannulated allowing for the multiple blood sampling from a single animal. […] Plasma was harvested by centrifuging at 3000 r.p.m. for 10 min and stored at − 30°C until bioanalysis. Plasma samples (100 μL) were further processed as described in “Sample preparation” section.
(§1) Pharmacokinetic parameters were calculated by employing a non-compartmental approach, using Phoenix WinNonlin software v. 6.3 (Pharsight, USA). For i.v. administration, plasma concentration at time zero (C 0) was back-extrapolated using log-linear regression, while the maximum concentration after i.p. administration (C max) and the time to C max (t max) were obtained directly from the concentration-time data. The area under the mean plasma concentration versus time curve extrapolated to infinity (AUC0-inf) was estimated using the log/linear trapezoidal rule. AUMC0-inf was estimated by calculation of the total area under the first-moment curve by combining the trapezoid calculation of AUMC0-t and extrapolated area. The mean residence time (MRT) was calculated from AUMC0-inf/AUC0-inf. The terminal rate constant (λ z) was calculated by log-linear regression of the drug concentration data in the terminal phase and the terminal half-life (t 1/2) was calculated as 0.693/λ z. The systemic clearance (CL) was estimated from the administered dose divided by AUC0-inf. The volume of distribution at steady state (V ss) was calculated from D i.v.⋅AUMC/AUC^2, where D i.v is the dose administered i.v. in mg per kg of body weight. The concentration versus time profiles of the parent drug and metabolite following both routes of administration were also fitted simultaneously to the pharmacokinetic model with a metabolite compartment to obtain one set of parameters. During iteration process, the fraction of dose absorbed (F) was fixed to the value calculated using the following equation:1 F=AUC0−ti.p.∙Di.v./AUC0−ti.v.∙Di.p.
where AUC0-t is the area under the concentration versus time curve calculated to the last measured point and D is the dose administered.

Data set [2] is described as follows: PK model with a metabolite compartment fitted simultaneously to i.v. and i.p. rat plasma data. Here is the method:
as §1

A short description of data set [3]: Isolated perfused rat liver (IPRL) study, recirculating. The settings on record: mean ± SD. Here is the method:
(§2) Rat livers were perfused in situ using PS-1 perfusion system from Harvard Apparatus-Hugo Sachs Electronics (HA-HSE). […] The temperature of the perfusion medium was thermostatically controlled at 37 °C. In each experiment, the common bile duct was cannulated with PE-10 tubing. […] Experiments were carried out in a recirculating manner with the total volume of perfusate equal 200 mL. […] Samples of bile were collected in pre-weighed Eppendorf vials and measured by gravimetric volume at the end of perfusion period, assuming a density of 1. Perfusate was collected from the reservoir at 5 min intervals up to 45 min.
Non-compartmental estimates of hepatic pharmacokinetic parameters were determined from the outflow concentration-time profiles. The hepatic extraction ratio (ERH) was calculated according to the following equation:2 ERH=CLH/Q where CLH is a hepatic clearance (per gram of liver) and Q is a perfusate flow (per gram of liver).
The apparent hepatobiliary clearance (CLb,app) was calculated as the cumulative amount of drug excreted in bile divided by the AUC0-t of the drug in the perfusate.

Data set [4] in a line: Stability of analytes in rat plasma (bench top, freezer, freeze/thaw, autosampler). It is filed as in vitro ADME. As to conditions: bench top 2 h, − 30°C 90 days, autosampler 10°C up to 24 h. Here is the method:
The stability of analytes was determined in the battery of tests according to the appropriate guidelines. Namely, the bench top stability (for 2 h), freezer stability (at − 30°C for 90 days), freeze/thaw stability and post preparative autosampler stability (at 10°C up to 24 h). Samples were considered to be stable when 85–115% of the initial concentrations were found.

For data set [5] the following is noted: Krebs Hanseleit buffer, 37 °C, perfusion model without a liver. Here is the method:
as §2

Where [6] appears, read: male, Wistar, in vivo, ip, 10 mg/kg.
The mark [7] stands for this setting: male, Wistar, in vivo, iv, 1 mg/kg.
[8] abbreviates: rat, i.v. and i.p. fitted simultaneously.

Counter-ions that a name gives are not always drawn.

The term bioavailability denotes dose-corrected exposure relative to a reference, in per cent. Read a low bioavailability as little systemic uptake. Broadly, the CL/F is clearance divided by bioavailability, as obtained after extravascular dosing. What is called Cmax is the maximum level reached in the sampled fluid or tissue. The Vd/F is the apparent distribution volume after extravascular dosing. The term half-life denotes how long it takes for the measured level to halve. As for `CN1c2ccccc2C(NCCCCCCC(=O)O)c2ccc(Cl)cc2S1(=O)=O` (centres unmarked) [Tianeptine, Tianeptine sodium salt], the “t 0.5λz” value in data set [1] (after tianeptine i.p. 10 mg/kg, GM (90% CI), n = 3) is 1.46 (1.018–2.085) h. In data set [1] (male, Wistar, in vivo, 10 mg/kg, absolute bioavailability, tianeptine i.p. 10 mg/kg vs i.v. 1 mg/kg, Eq. 1), this compound had a bioavailability of 69%. In data set [1] (setting [6]), this compound gave a CL/F of 51.7 mL/min/kg, a Cmax of 6650 ng/mL and a Vd/F of 6.51 L/kg. In data set [1] (setting [7]), this compound showed a clearance of 30.7 mL/min/kg and a half-life of 69.6 min. For the same compound, the Vd in data set [1] (male, Wistar, in vivo, iv, 1 mg/kg, V ss (volume of distribution at steady state), tianeptine i.v. 1 mg/kg, GM (90% CI), n = 3) worked out at 2.03 L/kg. The Vd in data set [1] (male, Wistar, in vivo, iv, 1 mg/kg, V z, tianeptine i.v. 1 mg/kg, GM (90% CI), n = 3) was determined as 2.41 L/kg. In addition, in data set [1] (tianeptine i.p. 10 mg/kg vs i.v. 1 mg/kg, Eq. 1), the absolute bioavailability came out at 69.4%. In addition, in data set [1] (tianeptine i.v. 1 mg/kg, back-extrapolated, GM (90% CI), n = 3), the C o is recorded as 1.27 (0.86–1.9) mg/L. Moreover, in data set [2] (i.p., fixed to the value calculated by Eq. 1), the “F (fraction absorbed)” value is 0.694 fixed. For the same compound, in data set [2] (male, Wistar, rat, in vivo), the half-life was 15 min and the k el was 0.000776 s⁻¹. Further, the “V C (volume of central compartment)” value in data set [2] (rat, i.v. 1 mg/kg and i.p. 10 mg/kg fitted simultaneously) amounted to 0.761 L/kg. Besides, in data set [2] (setting [8]), the “k 12 (distribution rate constant)” value is 0.504 h⁻¹ and the “k 21 (redistribution rate constant)” value was 0.628 h⁻¹. In data set [3], the “apparent hepatobiliary clearance (CLb,app)” value was 0.2 ± 0.09 mL/min. The “stability in rat plasma” value in data set [4] was “no stability related problems”. Also, the “stability under perfusion conditions” value in data set [5] is “no detectable degradation products”.
